# “And” between values parts separate entries of the source, which are not always exact repeats. Equal entries are not always repeated. Out of some 360,000 compounds screened, about 7,500 (2.1%) were called active. The inconclusive results got no clear call from the source; some entries with a clear call stand among them for comparison. Calls come from the whole dose curve; as a rule, active = well fitted inhibition curve with a large enough effect; inconclusive = small, poorly fitted or top-dose-only effect, or effect the other way; inactive = flat fitted curve, though single readings scatter. A potency beside an inconclusive call is a rough fit, not a confirmed value.
# Assay: Nrf2 qHTS screen for inhibitors; note: nearly all actives have a fitted effect of over 60% in size
# Details: A549 ARE-Fluc reporter, luciferase luminescence, 18-24 h; activity change, negative = inhibition: at 46 µM (top of the series)
# Outline: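 A549 ARE_Fluc cells (5000/well, 5% FBS OPTI-MEM) pre-incubated 2 h, then treated with compounds 18-24 h at 37C/5% CO2 in concentration-response. CellTiter-Fluor viability read first; BugLite luciferase luminescence after 15 min at room temperature gives Nrf2 activity.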
# % is set by controls: 0 for no effect and ±100 for the full control effect; potency is the fitted concentration of half-maximal effect.
SMILES,Potency,"activity change, negative = inhibition"
Cc1ccn2c(Nc3ccccc3C)c(-c3ccncc3)nc2c1,"inconclusive: 18.4 µM [activator, partial curve] and inconclusive: 14.6 µM [activator, partial curve]",–
CCN(CCN(C)C)C(=O)Cn1ncc2c([nH]c3ccc(C)cc32)c1=O,inactive,–
COc1ccc(OCC(=O)N2CCN(C(=O)c3cccc4ccccc34)CC2)cc1,"inconclusive: 0.164 µM [falling, full curve, poor fit]",–
O=C1c2nc3cc(-c4ccco4)[nH]n3c(=O)c2CN1Cc1ccccc1,inactive,–
CCCCn1c(CN2CCN(c3ccc(OC)cc3)CC2)nc2c1c(=O)[nH]c(=O)n2C,"inconclusive: 8.2 µM [falling, partial curve, poor fit]",–
COCCCNC(=O)CSc1nc2sc(C(=O)OC)c(C)c2c(=O)n1N,inactive,–
O=C(Nc1ccccn1)C1CCN(S(=O)(=O)c2ccc3ccccc3c2)CC1,"inconclusive: 29.1 µM [falling, single point]",–
Cc1ccccc1Cn1c(-c2cccs2)nc2ccccc21,"inconclusive: 16.4 µM [activator, partial curve]",–
CC(C)[C@H](NC(=O)c1ccco1)C(=O)OCC(=O)Nc1cccc(F)c1,"inconclusive: 18.4 µM [activator, partial curve, poor fit]",–
COc1ccc(-c2noc(CN(C(=O)c3ccccc3Cl)C(C)C)n2)cc1,"inconclusive: 29.1 µM [falling, single point]",–
CN(C)C(=O)c1cc(C(=O)c2ccc(F)cc2Cl)c[nH]1,"inconclusive: 18.4 µM [activator, partial curve, poor fit]",–
COc1ccc(-c2cn3c(n2)sc2cc(C(=O)NCC(C)c4ccccc4)ccc23)cc1 (stereo not given),"inconclusive: 20.6 µM [falling, partial curve, poor fit]",–
Cc1c(Cl)cccc1NC(=O)Nc1nnc(N(C)C2CCCCC2)s1,active: 18.4 µM,–
CCOc1ccc2[nH]cc(C(=O)NCc3ccccc3)c(=O)c2c1,active: 13 µM,–
O=C1COc2ccc(C(=O)CSc3nnc(Cc4cccs4)n3-c3ccc(Cl)cc3)cc2N1,"inconclusive: 23.1 µM [falling, partial curve, poor fit]",–
COc1ccc(C(=O)/C(=C\c2ccco2)N2C=CC=CC2=C(C#N)C#N)cc1,"inconclusive: 18.4 µM [falling, single point]",–
Fc1ccc(-n2nnc(-c3cccnc3)n2)cc1,"inconclusive: 18.4 µM [activator, partial curve]",–
Cc1ccc(C(=O)c2cn(Cc3cc(C)ccc3C)c3nc(C)ccc3c2=O)cc1,"inconclusive: 14.6 µM [falling, single point]",–
CCc1ccc(NC(=S)N(Cc2cccnc2)Cc2ccco2)cc1,"inconclusive: 18.4 µM [falling, single point]",–
Fc1ccc(N2CCN(c3ncnc4c3nnn4Cc3ccccc3Cl)CC2)cc1,active: 13 µM,–
O=C(O)c1cc2ccccc2c2cc(Br)ccc12,inactive,–
Cc1ccc(-c2noc(CN(C(=O)c3cccc(Br)c3)C(C)C)n2)cc1,"inconclusive: 29.1 µM [falling, single point]",–

# Full records as entered above.
# `Fc1ccc(-n2nnc(-c3cccnc3)n2)cc1` as listed: Potency: inconclusive: 18.4 µM [activator, partial curve]
# `CN(C)C(=O)c1cc(C(=O)c2ccc(F)cc2Cl)c[nH]1` as listed: Potency: inconclusive: 18.4 µM [activator, partial curve, poor fit]
# `CCCCn1c(CN2CCN(c3ccc(OC)cc3)CC2)nc2c1c(=O)[nH]c(=O)n2C` as listed: Potency: inconclusive: 8.2 µM [falling, partial curve, poor fit]
# `CCc1ccc(NC(=S)N(Cc2cccnc2)Cc2ccco2)cc1` as listed: Potency: inconclusive: 18.4 µM [falling, single point]

# (more compounds)

SMILES,Potency,"activity change, negative = inhibition"
Cc1ccc(C(=O)NC(C)C2CC3CCC2C3)c(C)c1 (stereo not given),"inconclusive: 9.2 µM [activator, partial curve]",–
COc1ccccc1NC(=O)N(Cc1ccccc1)c1ccccn1,"inconclusive: 2.59 µM [activator, single point]",–
O=C1CCCC(O)=C1C=Nc1ccc2c(c1)oc1ccccc12,"inconclusive: 9.2 µM [activator, partial curve, poor fit]",–
COc1ccc(-c2cc(=O)oc3cc(OCC(=O)NCCN4CCOCC4)ccc23)cc1,"inconclusive: 2.31 µM [falling, full curve, poor fit]",–
O=C(COc1ccccc1-c1ccccc1)N/N=C/c1ccncc1,"inconclusive: 29.1 µM [falling, single point]",–
Clc1ccc(OCCSc2nnnn2C2CCCCC2)cc1,"inconclusive: 10.3 µM [activator, partial curve]",–
O=C(CSc1nc2ccc(Cl)cc2[nH]1)c1c[nH]c2ccccc12,"inconclusive: 7.31 µM [activator, partial curve, poor fit]",–
O=C(Nc1ccccc1C(F)(F)F)C1(S(=O)(=O)c2ccc(Cl)cc2)CC1,inactive,–
O=C(CNC(c1ccccc1)c1ccccc1)Nc1ccccc1-c1ccccc1,"inconclusive: 29.1 µM [falling, single point]",–
Cn1c(CNc2ccc(Cl)cc2)nnc1SCC#N,"inconclusive: 6.51 µM [activator, single point]",–
Cc1ccc(C)c(N2CCN(C(=O)c3ccc4nsnc4c3)CC2)c1,inactive,–
COc1ccc(N2CCN(C(c3ccc4ncccc4c3)c3nnnn3C(C)(C)C)CC2)cc1 (stereo not given),"inconclusive: 32.6 µM [falling, partial curve, poor fit]",–
COc1ccc(C)cc1NC(=O)C1CCC(CNS(=O)(=O)c2ccc3c(c2)CCCC(=O)N3)CC1 (stereo not given),active: 7.31 µM,–
COc1cc2[nH]c(=O)n(CCCCCC(=O)NCCCN3CCCC3=O)c(=O)c2cc1OC,inactive,–
CC(C)c1ccc(-c2noc(C3CCCN(S(C)(=O)=O)C3)n2)cc1 (stereo not given),inactive,–
C/C=C/COC(=O)c1[nH]c2c(c1C)C(=O)CC(c1ccco1)C2 (stereo not given),"inconclusive: 2.91 µM [activator, partial curve, poor fit]",–
COC(=O)Cn1cnc2c(nnn2-c2ccc(F)cc2)c1=O,"inconclusive: 0.0731 µM [falling, full curve, poor fit]",–
CC(C)c1cc(C(=O)NCc2ccc(F)cc2)no1,"inconclusive: 20.6 µM [activator, single point]",–
CCCCn1c(SCC(=O)Nc2cccc(OC)c2)nc2ccc(N3CCOCC3)cc2c1=O,"inconclusive: 11.6 µM [falling, partial curve, poor fit]",–
O=C(N/N=C1\SCC(=O)N1CCc1ccccc1)c1cccs1,"inconclusive: 13 µM [activator, partial curve, poor fit]",–
CCOC(=O)C1CCN(C(=O)Cn2nc(C)n3cccc3c2=O)CC1,inactive,–
Cc1cc(C)nc(SC2=CS(=O)(=O)c3ccccc32)n1,"inconclusive: 23.1 µM [activator, partial curve]",–

SMILES,Potency,"activity change, negative = inhibition"
CCOC(=O)c1c(C)[nH]c(C(=O)COC(=O)C23CC4CC(CC(Cl)(C4)C2)C3)c1C,"inconclusive: 4.61 µM [falling, full curve, poor fit]",–
CN(C)C(=O)c1ccc(NC(=O)CSc2nc3ccccc3[nH]2)cc1,"inconclusive: 18.4 µM [falling, single point]",–
N#Cc1c(N)nc2c3c(sc(=N)c2c1N)NC(=O)CC3c1ccccc1Cl (stereo not given),"inconclusive: 29.1 µM [falling, single point]",–
O=C(NNC(=S)Nc1cccc(Cl)c1)c1ccccc1,"inconclusive: 3.66 µM [activator, single point]",–
CC(C)c1c(C(=O)N/N=C/c2cccc(OCc3ccccc3)c2)nnn1-c1nonc1N,"inconclusive: 29.1 µM [falling, single point]",–
CC(=O)Nc1ccc(NC(=O)C(NC(=O)C2CCC(C)CC2)C(C)C)cc1 (stereo not given),–,inactive: 6.25% [at 9.27 µM]
CSC1(SC2=NCCN2)SC2(NCCN2)S1,active: 8.2 µM,–
N#CCCn1nc(-c2ccc([N+](=O)[O-])cc2)cc1Nc1ccccc1NC(=O)C(F)(F)F,"inconclusive: 32.6 µM [falling, partial curve, poor fit]",–
COc1ccc(CCNC(=O)c2nnc(CS(=O)(=O)c3ccccc3)o2)cc1OC,inactive,–
CCOC(=O)c1c(NC(=S)Nc2ccc(F)cc2)sc2c1CCC2,"inconclusive: 20.6 µM [falling, single point]",–
COc1ccc(Nc2nc(C(C)(C)C)nc3c2nnn3Cc2ccccc2Cl)cc1OC,"inconclusive: 4.61 µM [falling, full curve]",–
O=C(CN1C(=O)NC2(CCCCC2)C1=O)Nc1ccc2c(c1)OCCCO2,"inconclusive: 2.91 µM [activator, partial curve]",–
O=C(Nc1nccs1)c1ccc(S(=O)(=O)NCC2CCCCC2)cc1,active: 13 µM,–
Cc1ccc(NC(=O)CN2C(=O)C(c3ccc(C)cc3)=NC23CCCCCC3)cc1,"inconclusive: 23.1 µM [falling, single point]",–
CCc1ccc(NC(=O)c2cccc(N3CCCS3(=O)=O)c2)cc1,"inconclusive: 0.82 µM [falling, partial curve, poor fit]",–
C/C(=N\OCC(=O)NCC(F)(F)F)c1cc2ccccc2o1,inactive,–
Cc1ccc(C(=O)N2CCN(Cc3ccc4c(c3)OCO4)CC2)c(Cl)c1,"inconclusive: 20.6 µM [falling, single point]",–
COc1ccc(-n2ncc3c(NCc4cccs4)ncnc32)cc1,"inconclusive: 5.17 µM [activator, partial curve]",–
Cc1nc(N2CCC(C)CC2)c2c(C)c(C(=O)Nc3cccc(C(F)(F)F)c3)sc2n1,"inconclusive: 18.4 µM [falling, single point]",–
CN(CCCC(=O)Nc1ccncc1)S(=O)(=O)c1ccc(Cl)cc1,"inconclusive: 10.3 µM [falling, partial curve, poor fit]",–
CN(C)C(=O)CSc1nnc(NC(=O)CCc2ccccc2)s1,"inconclusive: 16.4 µM [falling, partial curve, poor fit]",–
